In patent US11186651B2, “Monoclonal antibody for the detection of the antiretroviral drug emtricitabine (FTC, 2′,3′-dideoxy-5-fluoro-3′-thiacytidine)” (THE UNITED STATES OF AMERICA, AS REPRESENTED BY THE …, priority 2018, dated 2021):

Test system: 5D2 antibody

Nc1nc(=O)n([C@@H]2CS[C@H](CO)O2)cc1F [FTC]
detection of FTC in urine by the 5D2-based competitive assay (urine): detected | effective limit of detection (urine diluted 1:4 in 0.1M Tris-HCl pH 8.0 plus 1% BSA, spiked FTC): ~5 µg/mL
